Drawing on PMC8233393, this text covers binding for two substances.

Protein sequences, listed by entry. Tags and fused reporters are not part of them. Residues count along the entry.
UniProt Q02763, residues 23-1124: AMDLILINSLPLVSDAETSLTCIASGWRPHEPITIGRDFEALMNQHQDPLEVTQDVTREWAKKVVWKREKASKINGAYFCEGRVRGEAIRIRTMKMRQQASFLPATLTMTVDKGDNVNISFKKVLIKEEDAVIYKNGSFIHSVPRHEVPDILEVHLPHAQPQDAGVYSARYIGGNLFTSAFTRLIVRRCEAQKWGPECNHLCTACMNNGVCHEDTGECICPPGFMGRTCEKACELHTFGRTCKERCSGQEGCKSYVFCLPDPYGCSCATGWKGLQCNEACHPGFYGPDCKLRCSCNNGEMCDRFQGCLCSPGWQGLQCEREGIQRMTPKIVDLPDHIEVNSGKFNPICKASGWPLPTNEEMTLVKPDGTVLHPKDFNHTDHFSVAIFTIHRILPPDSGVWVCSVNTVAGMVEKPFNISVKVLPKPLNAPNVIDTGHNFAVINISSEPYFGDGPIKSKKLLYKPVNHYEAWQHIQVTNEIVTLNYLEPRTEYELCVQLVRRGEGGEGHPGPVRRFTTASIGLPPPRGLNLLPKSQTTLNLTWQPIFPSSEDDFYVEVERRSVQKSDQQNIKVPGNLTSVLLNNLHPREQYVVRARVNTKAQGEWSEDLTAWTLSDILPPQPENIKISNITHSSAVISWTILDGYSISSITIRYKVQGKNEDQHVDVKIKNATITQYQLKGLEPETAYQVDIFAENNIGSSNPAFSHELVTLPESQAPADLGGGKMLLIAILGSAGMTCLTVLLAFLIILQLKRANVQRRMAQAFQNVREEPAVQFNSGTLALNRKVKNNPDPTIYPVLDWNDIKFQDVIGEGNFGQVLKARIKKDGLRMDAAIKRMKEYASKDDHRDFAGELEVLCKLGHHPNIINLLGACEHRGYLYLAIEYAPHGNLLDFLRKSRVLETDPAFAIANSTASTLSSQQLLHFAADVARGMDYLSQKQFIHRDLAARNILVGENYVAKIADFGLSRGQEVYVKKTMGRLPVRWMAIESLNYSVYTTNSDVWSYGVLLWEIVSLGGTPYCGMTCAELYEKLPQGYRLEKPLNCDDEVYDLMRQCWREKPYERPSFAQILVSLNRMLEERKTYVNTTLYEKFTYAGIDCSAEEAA
UniProt P35590, residues 22-1138: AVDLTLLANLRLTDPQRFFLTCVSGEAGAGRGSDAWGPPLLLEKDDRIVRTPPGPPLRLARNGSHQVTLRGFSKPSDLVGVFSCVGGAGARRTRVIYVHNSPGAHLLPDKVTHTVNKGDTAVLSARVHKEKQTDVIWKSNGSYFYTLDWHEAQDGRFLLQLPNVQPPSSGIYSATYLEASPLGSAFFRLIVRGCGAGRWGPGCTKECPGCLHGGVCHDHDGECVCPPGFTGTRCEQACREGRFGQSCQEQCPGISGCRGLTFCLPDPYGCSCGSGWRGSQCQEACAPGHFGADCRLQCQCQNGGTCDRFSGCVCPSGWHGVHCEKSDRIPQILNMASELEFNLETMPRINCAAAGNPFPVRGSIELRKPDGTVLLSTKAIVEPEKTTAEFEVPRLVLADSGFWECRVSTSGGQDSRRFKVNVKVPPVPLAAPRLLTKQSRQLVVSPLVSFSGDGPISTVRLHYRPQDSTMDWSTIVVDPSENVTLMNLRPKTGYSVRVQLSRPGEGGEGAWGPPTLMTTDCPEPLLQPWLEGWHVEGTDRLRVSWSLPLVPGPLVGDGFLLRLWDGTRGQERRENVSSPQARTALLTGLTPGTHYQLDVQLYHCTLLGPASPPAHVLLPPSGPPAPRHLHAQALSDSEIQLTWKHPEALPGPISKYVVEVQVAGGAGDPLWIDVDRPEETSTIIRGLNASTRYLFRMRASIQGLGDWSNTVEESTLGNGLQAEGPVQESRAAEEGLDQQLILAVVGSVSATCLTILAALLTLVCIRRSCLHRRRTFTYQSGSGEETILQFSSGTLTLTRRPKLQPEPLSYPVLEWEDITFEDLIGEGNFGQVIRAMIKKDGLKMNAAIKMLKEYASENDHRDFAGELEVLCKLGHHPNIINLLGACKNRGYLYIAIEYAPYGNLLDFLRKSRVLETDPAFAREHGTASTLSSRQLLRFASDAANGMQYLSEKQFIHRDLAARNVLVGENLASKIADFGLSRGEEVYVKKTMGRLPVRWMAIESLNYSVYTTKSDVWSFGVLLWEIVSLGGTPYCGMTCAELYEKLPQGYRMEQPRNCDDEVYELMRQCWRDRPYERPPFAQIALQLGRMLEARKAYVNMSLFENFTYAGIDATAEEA

These are yes or no findings as the source states them, for the method shown. Binding seen in cells or lysates may run through a third protein. Some binding calls cover weakened binding; strength is not graded here.

The test has as its target TIE2, the other member of the TIE receptor family (endogenous in HMVECs and ST1 cells) (human (endogenous in HMVEC)) (UniProt Q02763). Kind of test: co-IP; lysates of control HMVECs and of TIE1-overexpressing ST1 cells, untreated or treated with 100 ng/ml TNF-α; immunoprecipitation with anti-TIE2 antibody (R&D Systems) and protein G agarose in a cold room; TIE1 detected by western blot.

Take “TIE1, endothelial receptor tyrosine kinase (endogenous in HMVECs) (from UniProt P35590 22-1138)”: the binding result is reported as “binds”. As to “TIE1 overexpressed from the lentiviral construct pCCL-6HF-TIE1 in HMVECs (clone ST1) (from UniProt P35590 22-1138) (receptor)”, the binding entry is “binds”.
